Experimental data: PubChem BioAssay AID504784 (Drosophila RNAi Screening Center, 2011)

- Assay: 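Genome-wide knock-down for genes giving too much or too little stored lipid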 (primary screen)
- Cell system: Drosophila Kc167 embryonic cells
- Reagent: long dsRNA against Drosophila genes, about 250 ng dsRNA per well
- Duration: 4 days
- Challenge: cells fed 400 µM oleic acid bound to BSA
- Detection: 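Cells imaged and segmented; ratio of lipid droplet area to nuclear area, log-transformed, then normalised as a B-score over the screen; higher means more stored lipid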
- Reading the numbers: droplet/nuclear area B-score: higher = more stored lipid (overstorage)
The screen tested about 17,000 reagents; this is an unselected part of those that have a named target and a result. 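Each column is one replicate's B-score; the combined score over replicates was not deposited, so single values may mislead.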 Names joined by + are all predicted targets of the reagent. Further read-outs or replicates are left out here. No sequences are given here.

Ir94c (Ionotropic receptor 94c) [DRSC13539] scored droplet/nuclear area B-score, replicate 1 = 0.423.
CG42750 [DRSC02458] gave droplet/nuclear area B-score, replicate 1 = 4.61.
Against CG42750 [DRSC03019], the values are droplet/nuclear area B-score, replicate 1 = -0.484.
CG42750 [DRSC03024] scored droplet/nuclear area B-score, replicate 1 = 0.586.
With knock-down of CG42750 [DRSC21414], the record shows droplet/nuclear area B-score, replicate 1 = 0.317.
After knock-down of CG42750 [DRSC23218], the record shows droplet/nuclear area B-score, replicate 1 = -1.15.
For CG32988 [DRSC02692] the deposit lists droplet/nuclear area B-score, replicate 1 = 0.104.
Against CG17267 [DRSC15207], the entry reads droplet/nuclear area B-score, replicate 1 = -0.106.
For nrv3 (nervana 3) [DRSC03097] the deposit lists droplet/nuclear area B-score, replicate 1 = -1.61.
Knock-down of CG10300 [DRSC14225] gave: droplet/nuclear area B-score, replicate 1 = -0.193.
DUBAI (Deubiquitinating apoptotic inhibitor) [DRSC07281] scored droplet/nuclear area B-score, replicate 1 = 0.404.
Obp56a (Odorant-binding protein 56a) [DRSC06085] scored droplet/nuclear area B-score, replicate 1 = -0.767.
With knock-down of CG17698 [DRSC11907], the record shows droplet/nuclear area B-score, replicate 1 = -0.00614.
With knock-down of sqa (spaghetti-squash activator) [DRSC06693] the results were droplet/nuclear area B-score, replicate 1 = 0.263.
For sqa (spaghetti-squash activator) [DRSC21635] the deposit lists droplet/nuclear area B-score, replicate 1 = -0.755.
With knock-down of CG4301 [DRSC19886], the record shows droplet/nuclear area B-score, replicate 1 = 0.675.
CG32276 [DRSC08027] showed droplet/nuclear area B-score, replicate 1 = -0.549.
CG13055 [DRSC09936] gave droplet/nuclear area B-score, replicate 1 = -1.35.
Knock-down of beat-IIIa (beaten path IIIa) [DRSC01577] resulted in: droplet/nuclear area B-score, replicate 1 = -1.56.
For beat-IIIa (beaten path IIIa) [DRSC02178], the values are droplet/nuclear area B-score, replicate 1 = 0.51.
For Pig1 (Pre-intermoult gene 1) [DRSC18698], the entry reads droplet/nuclear area B-score, replicate 1 = 1.12.
With knock-down of CG3104 [DRSC00567] the results were droplet/nuclear area B-score, replicate 1 = -0.793.
CG30369 [DRSC21996] gave droplet/nuclear area B-score, replicate 1 = 0.897.
IntS8 (Integrator 8) [DRSC07417] gave droplet/nuclear area B-score, replicate 1 = -0.674.
CG18596 [DRSC15355] showed droplet/nuclear area B-score, replicate 1 = -1.25.
After knock-down of CG14232 [DRSC19588], the screen gave droplet/nuclear area B-score, replicate 1 = 3.16.
For CG16779 [DRSC15153], the values are droplet/nuclear area B-score, replicate 1 = -0.881.
Cap-D3 + tomb [DRSC02347] scored droplet/nuclear area B-score, replicate 1 = -0.212.
For mip120 (Myb-interacting protein 120) [DRSC06960] the deposit lists droplet/nuclear area B-score, replicate 1 = 0.907.
For mus302 (mutagen-sensitive 302) [DRSC09905], the values are droplet/nuclear area B-score, replicate 1 = 1.31.
Knock-down of ODA-Dnal1 (Outer dynein arm dynein axonemal light chain 1) [DRSC07270] gave: droplet/nuclear area B-score, replicate 1 = -0.675.
After knock-down of LysD + LysC (retired record) [DRSC08674] the results were droplet/nuclear area B-score, replicate 1 = -0.248.
After knock-down of LysD + LysC (retired record) [DRSC22743], the screen gave droplet/nuclear area B-score, replicate 1 = -0.735.
raskol [DRSC19202] scored droplet/nuclear area B-score, replicate 1 = 0.026.
raskol [DRSC19731] scored droplet/nuclear area B-score, replicate 1 = 1.27.
Against raskol [DRSC19964], the values are droplet/nuclear area B-score, replicate 1 = 0.0655.
After knock-down of raskol [DRSC19967], the record shows droplet/nuclear area B-score, replicate 1 = -3.16.
raskol [DRSC21788] showed droplet/nuclear area B-score, replicate 1 = -0.196.
With knock-down of CCHa2-R (CCHamide-2 receptor) [DRSC04870] the results were droplet/nuclear area B-score, replicate 1 = -2.2.
Against CCHa2-R (CCHamide-2 receptor) [DRSC04871], the entry reads droplet/nuclear area B-score, replicate 1 = -3.02.
